# Results of single-concentration screens

Chains of the proteins cited; added tags and fusions are not shown. Residues count along the entry.
UniProt Q4DA54, 1-478: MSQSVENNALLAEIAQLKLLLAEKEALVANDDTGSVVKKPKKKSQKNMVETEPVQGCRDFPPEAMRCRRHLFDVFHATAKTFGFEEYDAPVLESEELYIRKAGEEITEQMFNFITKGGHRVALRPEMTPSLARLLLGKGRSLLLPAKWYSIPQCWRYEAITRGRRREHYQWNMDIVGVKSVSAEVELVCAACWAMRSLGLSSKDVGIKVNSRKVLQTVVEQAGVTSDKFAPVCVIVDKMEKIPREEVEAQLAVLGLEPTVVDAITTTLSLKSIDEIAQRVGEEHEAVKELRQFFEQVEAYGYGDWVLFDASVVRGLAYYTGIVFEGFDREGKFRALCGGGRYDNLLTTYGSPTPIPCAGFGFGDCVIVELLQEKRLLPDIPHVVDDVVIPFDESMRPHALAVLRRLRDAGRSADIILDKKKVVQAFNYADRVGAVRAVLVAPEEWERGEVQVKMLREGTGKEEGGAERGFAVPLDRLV

Measurements from “University of Dundee, Small-Polar-MMV Screening Library” (2021), ChEMBL document CHEMBL3988442.

Results are given as percent effect. The controls that fix the scale are not given in the record; negative values are as filed. This is an unselected part of the compounds tested.

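Histidine-tRNA ligase, Trypanosoma cruzi CL Brener (UniProt Q4DA54). Enzyme assay of histidyl-tRNA synthetase; the read-out is not stated. Concentration: 30 µM. Higher reads as stronger inhibition (inferred: compounds with an IC50 in retests scored well above the rest). About 69,000 compounds were tested under these conditions; 0.045% (about 31) showed 50% or more at least once.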

Result for CCS(=O)(=O)NC(CCSC)C(=O)Nc1ccc(C)cc1C (centres undefined) was -1.84%. With O=C(c1ccc(C2CCCN2C(=O)c2ccoc2)s1)N1CCOCC1 (centres undefined) the screen gave 4.348%. Result for CN(C)CCn1c2c(ccc1=O)CC(NCc1cccnc1)CC2 (centres undefined) was 5.063%. COc1ccc(F)cc1S(=O)(=O)NCC(c1cccn1C)N(C)C (centres undefined) gave 4.132%. Result for CNS(=O)(=O)CCN1CC(c2ccccc2)(c2ccccc2)CCC1=O was 10.5%.

COc1cc(CN(C)C(=O)NCc2ccccn2)ccc1SC read -5.435%. Cc1nn(C)cc1-c1cc(C(F)(F)F)nn1CCC#N read 0.4464%. For Cc1cc(CN(C)C(=O)NC(C)Cc2ccc(O)cc2)no1 (centres undefined) the result was -0.5435%. Result for CS(=O)(=O)NCCCSCc1cccc2cccnc12 was 1.911%. COCCN1CCCC(c2nc3c([nH]2)CC(C)(C)CNC3=O)C1 (centres undefined) gave 2.5%.

With CC(C)(C)c1cn2nc(N3CCC[C@@H]3CO)sc2n1 the screen gave -1.527%. N#Cc1cc(F)ccc1Cn1cncn1 gave 3.448%. For Cc1nn(C)c2c(NCCn3cccn3)ncnc12 the result was 5.263%. For Cc1cccc(-c2noc(CN3CCC(N4CCNC4=O)CC3)n2)c1 the result was 3.053%. COCCN1CCC12CCN(c1ncccn1)C2 (centres undefined) read 1.075%.

With Cn1cc(C(=O)N2CCN(Cc3ccccn3)CC2)ccc1=O the screen gave 0%. CNC(=O)NC(=O)CN1CCN(c2ccc(C(=O)OC)cc2)CC1C (centres undefined) gave 2.89%. For OCC1CCN(C[C@@H]2CN(C3Cc4ccccc4C3)C[C@@H]2CO)CC1 the result was 10.26%. CCOCC(=O)NCCc1ccc(I)s1 read -10.92%. Result for O=C(COc1cccc(F)c1)N1C[C@H](CO)C[C@H](CN2CCCC2)C1 was 0.8333%.

Cc1cnn(CC2CCCN2C(=O)Cn2nc(C)c(Cl)c2C)c1 (centres undefined) gave 4.933%. With Cn1ccc2c(C(=O)N3CCCC(c4nnc[nH]4)C3)cccc21 (centres undefined) the screen gave 5.263%. Result for CC(CCO)Nc1cccc(C(F)(F)F)n1 (centres undefined) was 2.128%. Result for Cc1ncsc1CN1C[C@H](C(=O)N2CCCO2)[C@@H]2CCO[C@@H]2C1 was 3.306%. Cc1cc(C2CCCN2C(=O)CN(C)Cc2ccccc2)no1 (centres undefined) read 7.407%.

CN1CCCN(C(=O)NCc2csc(Br)c2)CC1 gave 1.916%. O=C(Cc1ccccn1)N1C[C@@H]2CC[C@H](C1)N(Cc1ccccc1)C2=O gave 5%. For O=C(CCNc1ncccn1)N1CCN(c2nccs2)CC1 the result was 0.8721%. For Cc1cnc(N2CCC(c3ccncc3)CC2)nc1-c1ccnn1C the result was 1.136%. Result for O=C(O)C1(Oc2ccc3c(c2)OCO3)CCN(C2CCOCC2)CC1 was 3.96%.

Result for Cc1cccc(CN2CCN(C(=O)c3ccc(C)[nH]c3=O)CC2)c1 was 2.105%. For Cc1nc(CN2CCc3c(nc(C4CC4)n3C)C2)nc2ccccc12 the result was 13.16%. CNc1nc(C)c(C(=O)N2CCCCC2CCN2CCOCC2)s1 (centres undefined) gave 1.058%. Result for CSCCC(O)C(=O)N1CCCN(Cc2cccnc2)CC1 (centres undefined) was 3.361%. CC(C)(C)c1noc(CCC(=O)N2CCN(Cc3ccco3)CC2)n1 read 2.632%.

With CN(CCCc1cnn(C)c1)C(=O)C1CCCN(C2CCCC2)C1 (centres undefined) the screen gave 3.571%. Result for CC(CN1CCOCC1)NCc1nncn1C1CCCCC1 (centres undefined) was 1.626%. NCCc1cc(N2CCOCC2)nc(NC2CC2)n1 gave -1.695%.

The last 3 entries again:

| Compound | Percent Effect |
|---|---|
| `CN(CCCc1cnn(C)c1)C(=O)C1CCCN(C2CCCC2)C1` (centres undefined) | 3.571 |
| `CC(CN1CCOCC1)NCc1nncn1C1CCCCC1` (centres undefined) | 1.626 |
| `NCCc1cc(N2CCOCC2)nc(NC2CC2)n1` | -1.695 |